Test results: the supplement of paper PMC9877034
Where a name gives a salt, the structure may show the parent alone. Over roughly 1,000 compounds, “cFRET/donor change relative to DMSO, normalised to beta-lapachone positive control (supercomplex I-IV assembly)” has its median near 0.18; the lowest 2% begin near -1. Some of the results follow.

The molecules below were run on C2C12 (NDUFB8-AcGFP / COX8A-DsRed-Monomer FRET reporter) (assay: cFRET/donor change relative to DMSO, normalised to beta-lapachone positive control (supercomplex I-IV assembly) (fraction of beta-lapachone effect); higher = more respiratory supercomplex assembly). Details: 40 µM; 24 h.
Procedure: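 Cells were treated with 40 uM compound for 24 h and imaged on an IN Cell Analyzer 6000. Corrected FRET was divided by donor signal (cFRET/donor) and measured in two replicate experiments. The score is (mean cFRET/donor of compound - mean DMSO) / (mean beta-lapachone 40 uM - mean DMSO). Compounds flagged for prominent cell death, abnormal morphology or decreased cell number were excluded.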
With NS(=O)(=O)c1cc2c(cc1Cl)N=CNS2(=O)=O [Chlorothiazide] the cFRET/donor change was 0.223. CC(C)COCC(CN(Cc1ccccc1)c1ccccc1)N1CCCC1 (configuration not stated) [Bepridil hydrochloride] gave a cFRET/donor change of 0.0615. Work on Cn1c(=O)c2[nH]c(C3CCCC3)nc2n(C)c1=O [8-Cyclopentyl-1,3-dimethylxanthine] yielded a cFRET/donor change of 0.158. NC(=O)c1ncn([C@@H]2O[C@H](CO)[C@@H](O)[C@H]2O)n1 [Ribavirin] gave a cFRET/donor change of 0.0289. Cc1[nH]c(=O)c(C#N)cc1-c1ccncc1 [Milrinone] gave a cFRET/donor change of 0.195. Work on CN(C)CCC=C1c2ccccc2CCc2ccccc21 [Amitriptyline hydrochloride] yielded a cFRET/donor change of 0.274. Molecule Cn1c(=O)c2[nH]cnc2n(C)c1=O [Aminophylline ethylenediamine] has a cFRET/donor change of 0.314. With COc1cc(/C=C/C(=O)N2CCC=CC2=O)cc(OC)c1OC [Piperlongumine] the cFRET/donor change was -0.315. In the case of C=C[C@H]1CN2CC[C@H]1C[C@@H]2[C@@H](O)c1ccnc2ccc(OC)cc12 [Quinidine sulfate], the cFRET/donor change is reported as 0.441. Molecule CNC(=O)[C@H]1O[C@@H](n2cnc3c(NCc4cccc(I)c4)ncnc32)[C@H](O)[C@@H]1O has a cFRET/donor change of 0.503. Work on O=C1CCC(N2C(=O)c3ccccc3C2=O)C(=O)N1 (racemic) [(±)-Thalidomide] yielded a cFRET/donor change of -0.132. Work on COc1ccc(S(=O)(=O)Nc2nc(-c3cccc([N+](=O)[O-])c3)cs2)cc1OC yielded a cFRET/donor change of 0.458. Work on NC(N)=NCc1cccc(I)c1 [m-Iodobenzylguanidine hemisulfate] yielded a cFRET/donor change of -0.0455. In the case of NS(=O)(=O)c1cccc2c1c([N+](=O)[O-])cc1nc(O)c(O)nc12 [NBQX disodium], the cFRET/donor change is reported as -0.264. Work on N#CC(=C(/N)Sc1ccccc1N)/C(C#N)=C(/N)Sc1ccccc1N yielded a cFRET/donor change of 1.14. CN(C)c1cc2c(Nc3ccc4c(cnn4Cc4ccccc4)c3)ncnc2cn1 showed a cFRET/donor change of -7.46. C=C1C[C@@]23CC[C@H]4[C@@](C)(CCC[C@@]4(C)C(=O)O[C@@H]4O[C@H](CO)[C@@H](O)[C@H](O)[C@H]4O)[C@@H]2CC[C@]1(O[C@@H]1O[C@H](CO)[C@@H](O)[C@H](O)[C@H]1O[C@@H]1O[C@H](CO)[C@@H](O)[C@H](O)[C@H]1O)C3 [Stevioside] gave a cFRET/donor change of 0.0782. Molecule NC(=O)C(=O)O [Sodium Oxamate] has a cFRET/donor change of 0.258. Work on COc1cc(Cc2cnc(N)nc2N)cc(OC)c1OC [Trimethoprim] yielded a cFRET/donor change of -0.0387. CN1CCc2ccccc2Cc2[nH]c3ccccc3c2CC1 was tested, and the cFRET/donor change was 0.57. For Nc1ccc(-c2nc3ccc(-c4nc5ccc(N)cc5[nH]4)cc3[nH]2)cc1, the cFRET/donor change was -0.494. For O=c1ccc2ccc(O)c(O)c2o1 [Daphnetin], the cFRET/donor change was 0.438.
